# Assay results reported in PubChem BioAssay AID504444 (National Center for Advancing Translational Sciences (NCATS), 2011).
# Among all 360,000 compounds or so, about 7,500 (2.1%) were called active. The shares of active, inactive and inconclusive entries below differ from those in the screen. Calls follow the shape of the dose curve; as a rule, active = well fitted inhibition curve with a large enough effect; inconclusive = small, poorly fitted or top-dose-only effect, or effect the other way; inactive = flat fitted curve, though single readings scatter. Potencies beside an inconclusive call are fits to weak or partial responses and may not hold up.
# Assay: Nrf2 qHTS screen for inhibitors; also: nearly all actives have a fitted effect of over 60% in size
# Conditions: A549 ARE-Fluc reporter, luciferase luminescence, 18-24 h; activity change, negative = inhibition: at 46 µM (top of the series)
# Outline: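 Concentration-response testing used A549 ARE_Fluc cells at 5000 cells/well. Following an 18-24 h compound incubation, viability was read by fluorescence (Ex 405/Em 525) and luciferase output by luminescence.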
# % is scaled to controls: 0 for no effect and ±100 for the full control effect; potency is read from the fitted curve at half-maximal effect.
Structure (SMILES),Potency,"activity change, negative = inhibition"
COc1ccc(Cl)cc1C(=O)Nc1ccccc1N1CCCCC1,"inconclusive: 29.1 µM [activator, single point]",–
Cc1ccc(NS(=O)(=O)c2ccc(C(C)C)cc2)cc1S(=O)(=O)N1CCOCC1,"inconclusive: 25.9 µM [falling, single point]",–
CCCCNC(=O)Nc1nc2ccccc2s1,"inconclusive: 29.1 µM [activator, single point]",–
COc1ccc(N=Nc2c(N)n[nH]c2N)cc1,"inconclusive: 18.4 µM [activator, partial curve]",–
Fc1ccc(-c2csc(-c3cccnc3)n2)cc1F,"inconclusive: 11.6 µM [activator, partial curve, poor fit]",–
Cc1ccc2oc(-c3ccco3)cc(=O)c2c1,"inconclusive: 18.4 µM [activator, partial curve, poor fit]",–
Nc1ccccc1N=Cc1ccc(-c2cccc(Cl)c2)o1,"inconclusive: 1.46 µM [activator, full curve]",–
CC1=CC(C)(C)Nc2ccc(OC(=O)C(Cc3ccccc3)N3C(=O)C4CCCCC4C3=O)cc21 (configuration not stated),"inconclusive: 8.2 µM [falling, partial curve]",–
Cc1sc2c(c1C)CN(C(C)(C)C)CN2C(=O)c1ccccc1,"inconclusive: 0.0517 µM [activator, full curve, poor fit]",–
COc1ccc(S(=O)(=O)N2CCOCC2)cc1NC(=O)CN1CCC(Cc2ccccc2)CC1,"inconclusive: 20.6 µM [falling, single point]",–
Cn1c(Cc2nc(-c3cnccn3)no2)nnc1SCC(=O)Nc1ccccc1,"inconclusive: 25.9 µM [activator, single point]",–
Cc1cc(NC(=O)CCCS(=O)(=O)c2nc(-c3cccs3)cc(C(F)(F)F)n2)no1,inactive,–
O=C(Nc1ccc2c(c1)OCO2)c1cc(-c2cccnc2)nc2ccccc12,"inconclusive: 18.4 µM [activator, single point]",–
CCC(=O)Nc1ccc(-c2cc(-c3ccccc3)nc(-c3ccc(NC(=O)CC)cc3)n2)cc1,inactive,–
COc1cc(CNCCN(C)C)ccc1OCc1c(F)cccc1Cl,inactive,–
Cc1ccc(OCc2cc(C(=O)NC3CCc4ccccc43)no2)cn1 (configuration not stated),active: 13 µM,–
Cc1cccc(/C=N/N(CCO)C2=NS(=O)(=O)c3ccccc32)c1,"inconclusive: 6.51 µM [activator, partial curve, poor fit]",–
COc1ccc(/C=C/C(=O)NC(=S)NNC(=O)Cc2cccs2)cc1,"inconclusive: 20.6 µM [falling, single point]",–
O=C(CSc1nnc(-c2cccnc2)o1)Oc1ccccc1,inactive,–
Cc1occc1-c1nnc(SCC(=O)NCCc2ccccc2)o1,"inconclusive: 29.1 µM [activator, partial curve, poor fit]",–
CCC[n+]1c2ccccc2cc2ccccc21,inactive,–
CC(NC(=O)C1CC=CCC1C(=O)O)C1CC2CCC1C2 (configuration not stated),inactive,–
COc1ccc(Cl)cc1C(=O)Nc1ccc(NC(=O)C(C)C)cc1,"inconclusive: 0.731 µM [falling, partial curve, poor fit]",–

# Grouped by structure, the compounds so far containing a Cl atom.
Structure (SMILES),Potency,"activity change, negative = inhibition"
COc1ccc(Cl)cc1C(=O)Nc1ccccc1N1CCCCC1,"inconclusive: 29.1 µM [activator, single point]",–
Nc1ccccc1N=Cc1ccc(-c2cccc(Cl)c2)o1,"inconclusive: 1.46 µM [activator, full curve]",–
COc1cc(CNCCN(C)C)ccc1OCc1c(F)cccc1Cl,inactive,–
COc1ccc(Cl)cc1C(=O)Nc1ccc(NC(=O)C(C)C)cc1,"inconclusive: 0.731 µM [falling, partial curve, poor fit]",–

# Remaining list, next part

Structure (SMILES),Potency,"activity change, negative = inhibition"
O=C(Nc1cccnc1)c1ccccc1NS(=O)(=O)c1ccc(F)cc1,"inconclusive: 11.6 µM [falling, partial curve, poor fit]",–
CC(=O)Nc1ccc(NC(=O)CSc2nccn2Cc2ccccc2)cc1,"inconclusive: 16.4 µM [falling, single point]",–
CSc1ncc(CN2CCCC(C(=O)c3ccc(C(C)(C)C)cc3)C2)cn1 (configuration not stated),"inconclusive: 4.61 µM [activator, partial curve, poor fit]",–
CCN(C(=O)COC(=O)c1c2c(nc3ccccc13)/C(=C/c1ccccc1)CC(C)C2)C1CCS(=O)(=O)C1 (configuration not stated),inactive,–
C=CCn1c(SCc2ccccc2F)nc2cc(C(=O)O)ccc2c1=O,"inconclusive: 11.6 µM [falling, partial curve]",–
COc1cc(SC)ccc1C(=O)NCCc1c[nH]c2ccccc12,"inconclusive: 29.1 µM [falling, single point]",–
CCOC(=O)C1(Cc2cccc(OC)c2)CCCN(C(=O)c2ccc(OC)o2)C1 (configuration not stated),"inconclusive: 9.2 µM [activator, partial curve]",–
CCOc1ccc(/C=N/NC(=O)c2ccc(Cn3cc(Br)cn3)o2)cc1,"inconclusive: 6.51 µM [activator, partial curve]",–
CCOC(=O)N1CCN(CC(=O)Nc2c(C(=O)OC)[nH]c3ccc(Cl)cc23)CC1,"inconclusive: 16.4 µM [falling, partial curve, poor fit]",–
COc1ccc(S(=O)(=O)N2CCOCC2)cc1NC(=O)COC(=O)C1CCC1,inactive,–
OCC1(CCc2ccccc2)CCN(Cc2cccn2-c2cccnc2)CC1,"inconclusive: 8.2 µM [falling, partial curve, poor fit]",–
Cc1ccc(-c2nn(C)c(=O)c3ccccc23)cc1S(=O)(=O)N1CCCC1,"inconclusive: 14.6 µM [falling, partial curve, poor fit]",–
COc1ccc(-c2nc3c4ccccc4ccn3c2CN2CCOCC2)cc1OC,"inconclusive: 29.1 µM [activator, single point]",–
COc1ccc(N2C(=O)CSC23C(=O)N(Cc2ccc(C)cc2)c2ccccc23)cc1Cl (configuration not stated),"inconclusive: 16.4 µM [falling, single point]",–
COc1cc2[nH]c3c(N4CCN(c5ccccn5)CC4)ncnc3c2cc1OC,"inconclusive: 20.6 µM [falling, single point]",–
Cc1ccc(OCCN2CCOCC2)cc1C,"inconclusive: 20.6 µM [activator, single point]",–
O=C(Nc1ccc(Cl)c(Cl)c1)Nc1cc(S(=O)(=O)N2CCOCC2)ccc1N1CCCC1,"inconclusive: 29.1 µM [falling, single point]",–
CC(C)Cc1nc(N2CCN(C(=O)c3ccco3)CC2)c(C#N)c2c1CCC2,"inconclusive: 29.1 µM [falling, single point]",–
CC(C)SCCCOc1ccc(C(C)(C)C)cc1,"inconclusive: 25.9 µM [activator, partial curve, poor fit]",–
CCOC(=O)c1c(NC(=O)c2ccco2)sc2c1CCCCC2,inactive,–
O=C(CNC1CCCCCC1)c1cccs1,"inconclusive: 6.51 µM [activator, partial curve, poor fit]",–
COc1ccccc1NC(=S)N1C2CCC1CC(NC(=O)NC13CC4CC(CC(C4)C1)C3)C2 (configuration not stated),"inconclusive: 29.1 µM [falling, partial curve, poor fit]",–
COc1cccc(CN2CCN(c3ncccn3)CC2)c1,inactive,–

# Complete entries, quoted from the list.
# `CCOC(=O)c1c(NC(=O)c2ccco2)sc2c1CCCCC2` in the list: Potency: inactive
# `COc1ccc(-c2nc3c4ccccc4ccn3c2CN2CCOCC2)cc1OC` in the list: Potency: inconclusive: 29.1 µM [activator, single point]

# Continued:

Structure (SMILES),Potency,"activity change, negative = inhibition"
CSc1nc2ccccc2n1Cc1c(Cl)cccc1Cl,"inconclusive: 18.4 µM [falling, partial curve]",–
CCn1c(=O)c2cc(C(=O)N(C)c3cc(C)ccc3OC)sc2c2ccccc21,inactive,–
Cc1ccccc1C(=O)Nc1nnc(-c2ccco2)s1,"inconclusive: 29.1 µM [activator, single point]",–
O=C(NCC(c1ccc(F)cc1)N1CCOCC1)c1ccc([N+](=O)[O-])o1 (configuration not stated),inactive,–
COc1ccccc1/C=C/c1nc(C#N)c(NCC(C)C)o1,"inconclusive: 14.6 µM [falling, partial curve]",–
CC1CCCC(C)N1C(=O)CSc1nnc(-c2cccs2)o1 (configuration not stated),"inconclusive: 1.46 µM [activator, full curve]",–
CCc1cccc(NC(=O)C2CCN(S(=O)(=O)c3c(C)noc3C)CC2)c1,"inconclusive: 13 µM [falling, partial curve, poor fit]",–
C/C(=N\NC(=O)c1ccoc1C)c1ccccc1,"inconclusive: 2.91 µM [activator, full curve]",–
COc1ccccc1CNc1ncnc2c1nnn2Cc1ccccc1,inactive,–
Cc1ccc2c(c1)c1nc3ccccc3nc1n2CCN1CCOCC1,"inconclusive: 23.1 µM [falling, single point]",–
Cc1c(C(=O)NCCC2=CCCCC2)cccc1[N+](=O)[O-],"inconclusive: 20.6 µM [activator, partial curve, poor fit]",–
O=C(NC1CCCC1)c1cc(-c2ccc(F)cc2)on1,"inconclusive: 0.651 µM [activator, full curve]",–
CCN(CC)CCOC(=O)c1ccc(NC(=O)c2cc3c(s2)-c2ccccc2OC3)cc1,"inconclusive: 20.6 µM [falling, partial curve, poor fit]",–
Cc1ccc(CONC(=O)c2cccc(C)c2)cc1,"inconclusive: 23.1 µM [activator, single point]",–
CCOC(=O)c1cc2c(ccn2C)n1Cc1ccc(Cl)cc1,"inconclusive: 29.1 µM [falling, single point]",–
CCN(C(=O)COC(=O)CNC(=O)C12CC3CC(CC(C3)C1)C2)C1CCS(=O)(=O)C1 (configuration not stated),"inconclusive: 7.31 µM [falling, partial curve, poor fit]",–
COc1ccc(CNC(=O)C(CC(C)C)N2Cc3ccccc3C2=O)cc1 (configuration not stated),"inconclusive: 29.1 µM [activator, single point]",–
Cc1ccc(NC(=O)c2cccc(S(=O)(=O)N3CCN(c4ccccc4)CC3)c2)nc1,active: 14.6 µM,–
CCOc1ccccc1CNC(=O)c1cnc2sc(N(CC)CC)nn2c1=O,"inconclusive: 29.1 µM [falling, single point]",–
CC(C)CN(CCNC(=O)c1cc(-c2cccs2)nc2ccccc12)CC(C)C,–,inactive: 4.77% [at 9.27 µM]
C=CCCN([C@@H](C)C(=O)OC)S(=O)(=O)c1ccccc1Br,inactive,–
